These are yes or no findings as the source states them, for the method shown. In cells and extracts the contact can be indirect. A yes stands for co-enrichment or nearness to the bait. Other partners may have been found. For part of these data: No binding means not detected with the bait.
How the values were obtained:
[1] = biological target: VSG exclusion factor 2 (VEX2) with an N-terminal GFP tag, tagged at the native locus (T. brucei); assay: affinity purification with mass spectrometry; GFP-VEX2 held on GFP-Trap magnetic agarose beads from cryo-milled bloodstream-form T. brucei; 20 mM HEPES pH 7.4, 1 mM MgCl2, 10 uM CaCl2, sodium citrate (250 mM)/0.1% Tween-20; 4 °C, 2 h; LC-MS/MS, label-free, against an untagged wild-type control; three replicates
[2] = biological target: VSG exclusion factor 2 (VEX2) with an N-terminal GFP tag, tagged at the native locus (T. brucei); assay: affinity purification with mass spectrometry; as a1 but with the alternative extraction buffer (by the methods 100 mM NaCl/0.1% Tween-20)

Binder	binding [1]	binding [2]
TRF, T. brucei telomere-binding protein (protein, UniProt Q4VHG6 1-382) MYCHAGVPSTSPSPTDFSEVHKILCGHIKQGNNFSVAAAVALEPLHGSSEFWRTCGYRSGIVSALLASSLGVQRETDQLSHLEPMTVADVYAMFRHVVDENAHLRQIIARLESGECDPDDGSGGITSSAERLRSLISEGYDALTGRSSPCMGEDDCGQTPGKWKTCSSGAAGTKRRRDSPEVTERAYVRPESPVPASETLSPAANSGDDTVDEAEQNNALDVLEQLPALPGTTRTVSSFDAVGEMVNRGAGGPSLHPTNPSEFRVGSERGSTIETHSSSELSNFANVGVGTSSGKQKRYKFSASEDEAIIKGLARFTKGQQRFQQIYYAYRSVWHPARTVSQLYDHWRGTLRYKVIQQQGYRGKNSVAARSPEKASNMENNE	binds weakly	binds weakly
RAP1, T. brucei telomere-binding protein (protein, UniProt C1JEX5 1-855) MTDVDGGSGASWKRLRFFVCADTLLTFQPVDSSHLEGRPGQPEQRYLLVDGEYRPITSYPTSSLFLETLKLAGSTVVVIAPWKRAKTKKLLSLFGWTAFDEIRSIHPEPGRDKLHLACIGCSADEYSTSVIVATSRADWSPSMYPQLVEVKHGVNQVPHSLALLRALSSCLRLAEWQVRLPHVPISSCATLCRSRLFSHCRFFLEPVASEDATVALSINEHGGYIVTRREDATHCVVSGSLPNLPGDISNLPPGGCAAKAVKECSVLPTSAEGRSAEPKSAKVDTDSVSLVKNQVDESDDSIKDEFSYSAGNAATAMVECGDEGVWNEENADDEDPVTMIPPGTFSEDDEDDAPGGLEEADGETVTTVTTQWLKDCAEGLFMYPPQVSHTSKDGSDWNITGLLLATILPTSDAEPLLLSSFNTFAERSGFEPLQLNSADEGGLAEVMQRQWGGVLCMEEKDGDFLLSQTNIYTEAFSDEMDKHLTFVANRFCEAWKDAVQRRRALLGSDAGTQTTVSITVTFGTNTEVEVAPSVQPPPPPPPAPQPTTASAAANEGSKESATPALPFLMRALGPAEWAKEVEAPRSPPPSAVPDIPLKQDPVPSGEGVATAENSVGNDQKESTSRQVAGDAGDTANVAEATEEIAALDQPFEKCFIPTEALGSDREGLDRTQLERQLPFRNYPIKLNVSKSGIFCQFPTVSDAKRFYEEGTVEILNRSLPIKPVFEKRNETVAPAERKRRRSVSPGGVHPQTAAVSALSRRGIQGATYARTQRSRTDNGWKAEGDRNPFVLTEEENSLLTSLGITYTYALENVPLLEHYAQKDLSSKVYRKEKGVLVKMLEKLKAVKGTTSKAPQ	no binding	–

Reference: article PMC10713589
